Measured values taken from publication PMC8972800.
These are yes or no findings as the source states them, for the method shown. Where a sequence is shown, tags or fusion partners need not be part of it.

Molecular target: MSMEG_0317Δ (periplasmic domain of Mycobacterium smegmatis LmcA, MSMEG_0317, residues 30-323) (Mycobacterium smegmatis) (UniProt A0QP93)
Experiment: SEC; HiLoad 16/60 Superdex 75; 20 mM Tris pH 7.5, 200 mM NaCl, 5% (v/v) glycerol; calibrated with bovine gamma-globulin (158 kDa), chicken ovalbumin (44 kDa) and equine myoglobin (17 kDa); both purified

- binding: no binding
B1: MSMEG_0317Δ (periplasmic domain of Mycobacterium smegmatis LmcA, MSMEG_0317, residues 30-323) (domain or fragment, UniProt A0QP93 30-323)
chain: TYTKGKIAKIPLDIDTSLVSDGTATAFDPDSLVAERFKIDRDVPVALQQQMSVEAPSNADVVTFQVGTTLRRTDRQQDAGLLLALVDTVTMNRNTAEAVSSENNPGGAVQKPRAIEDEKPPTNIALPHEGLTYRFPFDTEKKTYPFFDPIAQKAFDANYDGEEDVNGLTTYRFVQNVGYDADGKLADPIKYSSLYEDDADASVTARAEVWGVPGEPDESITMDRFYAASRTFWVDPVSGTIVKSEEHGYQYYAREALKPEVTYVDFKVTTNEESVESQVAAASDERDRIALWTR
